PubChem BioAssay AID686943 | Drosophila RNAi Screening Center – 2013

- Aim: 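Knockdowns that increase or decrease active ERK after insulin receptor stimulation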 (primary screen)
- System: Drosophila S2R+ haemocyte-like cells expressing YFP-tagged ERK (Rolled)
- Reagent: long dsRNA against Drosophila genes
- Conditions: insulin stimulation versus unstimulated cells; dose and duration not given
- Measurement: 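Per-plate z-scores of phospho-ERK immunostaining normalised to YFP-tagged ERK, measured with and without insulin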
- Reading the numbers: replicate 1, z-score of dpERK with insulin and replicate 2, z-score of dpERK with insulin: higher = more active ERK per ERK-YFP after insulin
In all, the deposit lists about 23,000 reagents; below is an unselected part of those that have a named target and a result. 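Extra replicates exist only for a retested subset of genes; insulin dose and duration not given; both raised and lowered dpERK matter.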 The numbers tell different reagents against one gene apart. Names joined by + are all predicted targets of the reagent. Further read-outs or replicates are left out here. No sequences are given here. The record does not give: the amount of reagent, the time to read-out.

CG3071 scored replicate 1, z-score of dpERK with insulin -0.51; replicate 2, z-score of dpERK with insulin -0.06.
With knock-down of CG14903 the results were replicate 1, z-score of dpERK with insulin 0.22; replicate 2, z-score of dpERK with insulin -0.3.
With knock-down of Nhe1, the record shows replicate 1, z-score of dpERK with insulin 0.08; replicate 2, z-score of dpERK with insulin -0.28.
CG32241 #1 showed replicate 1, z-score of dpERK with insulin -0.21; replicate 2, z-score of dpERK with insulin 0.38.
With knock-down of CG32241 #2, the record shows replicate 1, z-score of dpERK with insulin 0.03; replicate 2, z-score of dpERK with insulin 0.65.
After knock-down of VhaAC45RP, the screen gave replicate 1, z-score of dpERK with insulin -0.01; replicate 2, z-score of dpERK with insulin 0.71.
With knock-down of tzn the results were replicate 1, z-score of dpERK with insulin 0.02; replicate 2, z-score of dpERK with insulin 0.39.
Depletion of CG34247 gave: replicate 1, z-score of dpERK with insulin -0.35; replicate 2, z-score of dpERK with insulin -0.89.
RhoGAPp190 #1 showed replicate 1, z-score of dpERK with insulin 0.54; replicate 2, z-score of dpERK with insulin -0.12.
After knock-down of RhoGAPp190 #2, the record shows replicate 1, z-score of dpERK with insulin -0.31; replicate 2, z-score of dpERK with insulin 0.41.
CG7632 showed replicate 1, z-score of dpERK with insulin 0.5; replicate 2, z-score of dpERK with insulin 0.68.
Knock-down of CG8188 resulted in: replicate 1, z-score of dpERK with insulin 0.59; replicate 2, z-score of dpERK with insulin 0.7.
mew #1 gave replicate 1, z-score of dpERK with insulin 0.44; replicate 2, z-score of dpERK with insulin 0.79.
After knock-down of mew #2 the results were replicate 1, z-score of dpERK with insulin -0.42; replicate 2, z-score of dpERK with insulin -0.47.
Knock-down of ens came out at: replicate 1, z-score of dpERK with insulin 0.17; replicate 2, z-score of dpERK with insulin -0.9.
Against CG17242, the values are replicate 1, z-score of dpERK with insulin -0.2; replicate 2, z-score of dpERK with insulin -0.36.
After knock-down of tw, the screen gave replicate 1, z-score of dpERK with insulin -0.27; replicate 2, z-score of dpERK with insulin -0.82.
Depletion of Vajk1 gave: replicate 1, z-score of dpERK with insulin 0.15; replicate 2, z-score of dpERK with insulin 0.41.
Depletion of gro gave: replicate 1, z-score of dpERK with insulin -1.32; replicate 2, z-score of dpERK with insulin -0.55.
With knock-down of Pkn + Tsen15, the record shows replicate 1, z-score of dpERK with insulin 0.8; replicate 2, z-score of dpERK with insulin 0.39.
Against CG30049, the entry reads replicate 1, z-score of dpERK with insulin -1.56; replicate 2, z-score of dpERK with insulin -2.29.
CG16974 showed replicate 1, z-score of dpERK with insulin 1.31; replicate 2, z-score of dpERK with insulin -0.54.

Reformatted: results already given
target,reagent no.,"replicate 1, z-score of dpERK with insulin","replicate 2, z-score of dpERK with insulin"
CG34247,1,-0.35,-0.89
RhoGAPp190,1,0.54,-0.12
RhoGAPp190,2,-0.31,0.41
CG7632,1,0.5,0.68
CG8188,1,0.59,0.7

The list goes on:
CheA46a showed replicate 1, z-score of dpERK with insulin -0.5; replicate 2, z-score of dpERK with insulin 0.75.
CkIIalpha scored replicate 1, z-score of dpERK with insulin -1.53; replicate 2, z-score of dpERK with insulin -0.66.
After knock-down of CG9864, the record shows replicate 1, z-score of dpERK with insulin -1.2; replicate 2, z-score of dpERK with insulin -0.12.
With knock-down of Skp2 + CG1103 #1, the record shows replicate 1, z-score of dpERK with insulin 0.94; replicate 2, z-score of dpERK with insulin -0.02.
With knock-down of Skp2 + CG1103 #2 the results were replicate 1, z-score of dpERK with insulin 0.99; replicate 2, z-score of dpERK with insulin 0.11.
With knock-down of Cdk7, the record shows replicate 1, z-score of dpERK with insulin 0.98; replicate 2, z-score of dpERK with insulin 0.66.
CG17147 scored replicate 1, z-score of dpERK with insulin 0.18; replicate 2, z-score of dpERK with insulin -0.26.
Silencing of CG7142 gave: replicate 1, z-score of dpERK with insulin -0.06; replicate 2, z-score of dpERK with insulin 0.84.
wek gave replicate 1, z-score of dpERK with insulin -0.78; replicate 2, z-score of dpERK with insulin -0.56.
For CG33648, the values are replicate 1, z-score of dpERK with insulin 0.53; replicate 2, z-score of dpERK with insulin 0.62.
With knock-down of Rrp40, the record shows replicate 1, z-score of dpERK with insulin 0.35; replicate 2, z-score of dpERK with insulin -0.81.
Knock-down of CG32369 #1 came out at: replicate 1, z-score of dpERK with insulin -0.1; replicate 2, z-score of dpERK with insulin -0.22.
Silencing of CG32369 #2 came out at: replicate 1, z-score of dpERK with insulin -0.38; replicate 2, z-score of dpERK with insulin -0.69.
Gbs-76A showed replicate 1, z-score of dpERK with insulin -0.49; replicate 2, z-score of dpERK with insulin -1.06.
After knock-down of mira the results were replicate 1, z-score of dpERK with insulin -0.14; replicate 2, z-score of dpERK with insulin 0.34.
After knock-down of CG3598, the record shows replicate 1, z-score of dpERK with insulin 1.61; replicate 2, z-score of dpERK with insulin -0.24.
Against spict, the values are replicate 1, z-score of dpERK with insulin -0.09; replicate 2, z-score of dpERK with insulin -0.95.
With knock-down of Golgin84, the screen gave replicate 1, z-score of dpERK with insulin -0.51; replicate 2, z-score of dpERK with insulin 0.
